Experimental data as given in paper PMC9529403.
No constants are given. Whether binding was seen depends on the method and setting. Binding seen in cells or lysates may run through a third protein. Some entries that bind do so weakly or less than the wild type.

Biological target: P53 (human (endogenous in Ishikawa)) (UniProt P04637)
Assay: co-IP; Ishikawa cell lysate (SNORD15B plasmid or empty vector), precleared with magnetic beads, 1 mg protein with 4 ug anti-P53 antibody or IgG overnight at 4°C, magnetic beads; blot probed with anti-TRIM25

binding: binds
Substance: TRIM25 (from UniProt Q14258 1-630)
